Assays:
[1] = system: transgenic C. elegans (tgMOR) that express mammalian MOR; conditions: in vivo
Gpr139−/− mice = conditions: chronic administration, mice lacking GPR139 vs wild-type

SMILES: CN1CC[C@]23c4c5ccc(O)c4O[C@H]2[C@@H](O)C=C[C@H]3[C@H]1C5 [morphine]
- shift of the dose response [1]: prominent left-ward shift in concentration dependence
- dependence (withdrawal across a spectrum of behaviors) (Gpr139−/− mice): lower dependence

Source: US12303511B2 (priority 2018, dated 2025)
